This note sets out measurements from patent US6111065A (Centocor, Inc., priority 1994, dated 2000).

The nature of this series: solid-phase peptide synthesis. The conditions noted are these: whole synthesis.

HELM strings list residues between dots; [ac] is acetyl, [am] amide, other brackets name non-standard units.

For the substance “Acetyl-threonyl-asparaginyl-glutamyl-alanyl-glutamyl-asparaginyl-tryptophyl-alanyl-aspartyl-asparaginyl-glutamyl-proline amide (Sequence ID No. 11)”, under “scale 0.50 mmol”, the crude mass amounted to 0.774 g and the isolated mass was determined as 6 mg. For “PEPTIDE1{A.E.N.W.A.D.N.E.P.N.N.[am]}$$$$V2.0”, the crude mass (scale 0.54 mmol) is on record as 0.55 g.

For the setting “scale 0.50 mmol”, “Threonyl-asparaginyl-glutaryl-alanyl-glutamyl-asparaginyl-tryptophyl-alanyl-aspartyl-asparaginyl-glutamyl-prolyl-asparaginyl-asparagine amide (Sequence ID No. 13)” had a crude mass of 0.44 g and an isolated mass of 33 mg.
